Values quoted from earlier work as cited in patent US20090221069A1, “METHOD FOR AUGMENTING THE ABILITY OF T-CELLS AND OTHER CELLS FOR FIGHTING DISEASE AND INVADE DISEASED ORGANS, FOR ELEVATING CD3 ZETA AND TNF-ALPHA EXPRESSION IN T-CELLS, AND MIXING T-CELL BOOSTING AND KIT PARTICULARLY USEFUL IN SUCH METHOD” (priority 2005, published 2009).
Some entries share one result that the patent states for a list of compounds.

System: ion channel
Conditions: from manufacturer's data sheets and/or the literature; cited from earlier work

## Dendrotoxin-K
  effective concentrations: 10 to 100 nM
